PubChem BioAssay AID652243 | Drosophila RNAi Screening Center | 2013

Aim: 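Fly regulators of androgen-dependent reporter output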 (primary screen)
Cells: Drosophila S2R+ cells
Reagent: long dsRNA against Drosophila genes
Timing: 72 h (48 h, then 24 h hormone)
Challenge: synthetic androgen R1881 at 10 nM for 24 h
Measurement: 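Per-well raw luminescence of the androgen-driven firefly reporter and of the Renilla control, two replicates each, without normalisation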
Direction: firefly reporter light: higher = more light from androgen-responsive reporter; Renilla control light: higher = more constitutive control signal (cell number, transfection)
Hit rule: 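Across duplicate plates, a knock-down whose log firefly/Renilla ratio shifted a set fold down or up from the GFP/LacZ control mean was a hit; the downward cut appears as both 1.5 and 3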
Calls: active = hit: reporter lowered or raised; inactive = no hit
In all, the deposit lists about 24,000 reagents; shown is an unselected part of those that have a named target and a result. In the full data, 246 (1%) got an active call. 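Plates not normalised; calls are printed but the firefly/Renilla ratio behind them is not deposited; fold cut for lowering reported inconsistently.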 The raw values are shown without normalisation. The numbers tell different reagents against one gene apart. Not given: the amount of reagent.

CG5928 #1 → firefly reporter light, replicate 1: 3.96e5; firefly reporter light, replicate 2: 3.79e5; Renilla control light, replicate 1: 2.35e6; Renilla control light, replicate 2: 2.48e6; call: inactive
CG5928 #2 → firefly reporter light, replicate 1: 3.21e5; firefly reporter light, replicate 2: 3.41e5; Renilla control light, replicate 1: 7.58e5; Renilla control light, replicate 2: 6.75e5; call: inactive
DCTN4-p62 #1 → firefly reporter light, replicate 1: 6.77e5; firefly reporter light, replicate 2: 5.54e5; Renilla control light, replicate 1: 1.31e6; Renilla control light, replicate 2: 1.29e6; call: inactive
DCTN4-p62 #2 → firefly reporter light, replicate 1: 4.80e5; firefly reporter light, replicate 2: 4.14e5; Renilla control light, replicate 1: 1.68e6; Renilla control light, replicate 2: 1.20e6; call: inactive
beat-Ib → firefly reporter light, replicate 1: 1.30e5; firefly reporter light, replicate 2: 1.89e5; Renilla control light, replicate 1: 1.92e6; Renilla control light, replicate 2: 1.89e6; call: inactive
Tssk #1 → firefly reporter light, replicate 1: 1.56e5; firefly reporter light, replicate 2: 1.61e5; Renilla control light, replicate 1: 1.61e6; Renilla control light, replicate 2: 1.76e6; call: inactive
Tssk #2 → firefly reporter light, replicate 1: 2.87e5; firefly reporter light, replicate 2: 3.33e5; Renilla control light, replicate 1: 4.20e5; Renilla control light, replicate 2: 4.14e5; call: inactive
tyn → firefly reporter light, replicate 1: 1.58e5; firefly reporter light, replicate 2: 1.62e5; Renilla control light, replicate 1: 5.49e5; Renilla control light, replicate 2: 4.40e5; call: inactive
CheA29a → firefly reporter light, replicate 1: 9.78e5; firefly reporter light, replicate 2: 1.08e6; Renilla control light, replicate 1: 2.68e6; Renilla control light, replicate 2: 2.03e6; call: inactive
Prx2 #1 → firefly reporter light, replicate 1: 4.63e5; firefly reporter light, replicate 2: 5.11e5; Renilla control light, replicate 1: 3.38e6; Renilla control light, replicate 2: 3.30e6; call: inactive
Prx2 #2 → firefly reporter light, replicate 1: 3.50e5; firefly reporter light, replicate 2: 1.62e5; Renilla control light, replicate 1: 1.10e6; Renilla control light, replicate 2: 9.75e5; call: inactive
slgA #1 → firefly reporter light, replicate 1: 95699; firefly reporter light, replicate 2: 63421; Renilla control light, replicate 1: 4.07e5; Renilla control light, replicate 2: 5.19e5; call: inactive
slgA #2 → firefly reporter light, replicate 1: 5.45e5; firefly reporter light, replicate 2: 2.69e5; Renilla control light, replicate 1: 5.74e5; Renilla control light, replicate 2: 4.23e5; call: inactive

Sorted by “firefly reporter light, replicate 2” (high to low): 2 of the entries above
CheA29a → firefly reporter light, replicate 1: 9.78e5; firefly reporter light, replicate 2: 1.08e6; Renilla control light, replicate 1: 2.68e6; Renilla control light, replicate 2: 2.03e6; call: inactive
Prx2 #1 → firefly reporter light, replicate 1: 4.63e5; firefly reporter light, replicate 2: 5.11e5; Renilla control light, replicate 1: 3.38e6; Renilla control light, replicate 2: 3.30e6; call: inactive
